# According to PMC12040169 (PLOS Biology, 2025):
# The list shows a part of the results.
# System: T1, CTL2-GFP (C. trachomatis L2/434/Bu, GFP-expressing)
# T1 construct: L2/434/Bu, GFP-expressing
# Set-up: species or system HeLa; Intracellular C. trachomatis growth in HeLa cells, bulk GFP fluorescence relative to DMSO
# Settings: bulk GFP, single well; 28.5 h, 10 µM; inhibitor
row,SMILES,% of control remaining [%]
1,Cc1cccc(CCN2CCC3(CC2)NCCc2c3[nH]c3ccc(Br)cc23)c1 [CBK039280],86.6361
2,COc1ccc(Oc2nccnc2N2CCN(Cc3ccc(Cl)c(Cl)c3)CC2)cc1OC [CBK083038T],86.9986
3,O=C(CCN1C(=O)c2ccc([N+](=O)[O-])cc2C1=O)Nc1ccccc1-c1ccccc1 [CBK265134],71.8646
4,CCC(C)(C)C(=O)Nc1ccc(Cl)nc1 [CBK091334],82.1971
5,CN(C)c1cccc(-c2cncc(Nc3ccc(Cl)cc3)n2)c1 [CBK065738],89.0182
6,Cc1nc2cc(NC(=O)Cc3c(C)nc4ccccc4c3C)ccc2o1 [CBK297083],131.653
7,COc1ccc(C2CC(=O)C(=CNCCN3CCN(C(=O)c4ccccc4)CC3)C(=O)C2)cc1 (stereo not shown) [CBK264762],100
8,Cn1c(=O)n(C)c2cc(NC(=O)CN(c3ccccc3)S(C)(=O)=O)ccc21 [CBK270094],111.338
9,CC(C)c1cc(C(=O)NC(C)(C)CN2CCCCC2C)n(C)n1 (stereo not shown) [CBK282644],109.692
10,CCOc1cc(CNCCO)c(Cl)cc1OC [CBK269309C],166.356
11,Nn1c(SCc2cc(=O)[nH]c3ccccc23)nnc1C(O)c1ccccc1 (stereo not shown) [CBK268405],118.926
12,COc1ccc2[nH]c(=O)c(CN(CCN(C)C)C(=S)Nc3ccc(F)cc3)cc2c1 [CBK135011],82.7755
13,CC(C)Oc1cccc(C(=O)Nc2ccc(N3CCN(C(=O)C(C)(C)C)CC3)cc2)c1 [CBK270280],109.286
14,O=C1c2ccccc2C(=O)N1CCc1nn2c(-c3cccnc3)nnc2s1 [CBK269793],132.872
15,CC1CCCCC1NC(=O)Cn1ncn2c(cc3ccsc32)c1=O (stereo not shown) [CBK284196],78.4234
16,O=C(NCCc1c[nH]c2ccc(Cl)cc12)c1ccc(Cl)cc1Cl [CBK159750],5.5258
17,Cc1nc(C)c(C(=O)N2CCN(Cc3ccccc3)CC2)s1 [CBK200177],98.0911
18,CN1CCC(N2CCN(C(=O)c3ccc(-c4ccc(OC(F)(F)F)cc4)nc3)CC2)CC1 [CBK156206],106.77
19,CCOc1ccc(Oc2ccc(C(F)(F)F)cc2NC(=O)CCCC(=O)O)cc1 [CBK296993],133.306
20,CC(=O)N[C@H]1CC[C@]2(C)CCC([C@H](C)C(=O)NC3CC3)[C@H](O)[C@H]2[C@@H]1C (stereo partly shown) [CBK289437],102.428
21,COc1ccccc1-n1nc(CC(C)C)nc1C(C)NS(C)(=O)=O (stereo not shown) [CBK306660],121.436
22,Cc1ccc(NC(=O)c2nc(-c3ccc(C(=O)N4CCOCC4)cc3)cnc2N)c(O)c1 [CBK149152],76.2561
23,Nc1c(C(=O)c2ccc3c(c2)OCO3)sc2nc(-c3cccnc3)ccc12 [CBK270186],134.248
24,COc1ccc(-c2cnc(N3CCOCC3)c3nccn23)cc1 [CBK091285],145.363
25,O=C(O)CCC(=O)NCC(=O)c1ccc(F)cc1 [CBK057384],154.13
26,CSc1nsc(SCC(=O)Nc2ccc3c(c2)OCO3)n1 [CBK270044],117.323
27,COc1ccc(OC)c(-c2nc(Nc3ccccc3Cl)sc2CC(=O)O)c1 [CBK264190],114.347

row,SMILES,% of control remaining [%]
1,CC(=O)c1cccc(NC(=O)N(CCO)C2CCCc3ccccc32)c1 (stereo not shown) [CBK305195],126.18
2,CNC(=O)c1cc(NC(=O)NCC2CC(=O)N(CCOC)C2)ccc1F (stereo not shown) [CBK304403],94.5299
3,N#C/C(=C/c1ccccc1OCc1cccc([N+](=O)[O-])c1)c1ccc(C(=O)O)cc1 [CBK268748],129.727
4,O=C(NCc1ccc(Cl)cc1)c1c(O)c2cc(NS(=O)(=O)c3ccccc3)ccc2[nH]c1=O [CBK017589],122.9
5,CCN1CCN(C(=O)CN(Cc2ccccc2)S(C)(=O)=O)CC1 [CBK266735],89.4102
6,Cc1nc2ccc(C(=O)NC(C)c3ccccn3)cc2s1 (stereo not shown) [CBK281890],93.6531
7,O=C(NCc1ccccc1OC1CCNC1)C1CCCO1 (stereo not shown) [CBK024503T],128.793
8,Cc1cc(C(=O)NCCn2ccnc2C)nc2ccccc12 [CBK281894],138.038
9,O=C(Nc1sc2c(c1C(=O)NCc1cccnc1)CCCC2)c1ccc(Cl)cc1 [CBK265498],100
10,CCOC(=O)CNS(=O)(=O)c1ccc(Cl)c(Cl)c1Cl [CBK034428],84.4596
11,COc1ccc(-c2oc(C(=O)N(C)C)c(C(=O)O)c2-c2ccc(OC)cc2)cc1 [CBK001958],114.838
12,Cc1cc(O)cc(O)c1/C=N\NC(=O)C1COc2cc3ccccc3cc2O1 (stereo not shown) [CBK262809],120.745
13,O=C(NC1CCCc2c1cnn2-c1ccc(F)cc1)c1ccncc1 (stereo not shown) [CBK283929],111.678
14,Cc1cc(Cl)c(S(=O)(=O)NCc2ccccc2)cc1OCC(N)=O [CBK266588],180.569
15,CCC(Cc1c[nH]c2ccccc12)NC(=N)N (stereo not shown) [CBK010430],100.248
16,Cc1ccc(C2(O)CCN(Cc3c(C)nc4cc(C)ccn34)CC2)cc1 [CBK282733],130.805
17,CCN1CCCc2cc(-c3cncn3CCCn3ccnc3C)ccc21 [CBK281810],107.551
18,Cc1csc2c(N3CCCC3CC(O)c3cnn(C)c3)ncnc12 (stereo not shown) [CBK304477],115.737
19,CCCCN1CCC(CNc2nccc3sc(S(=O)(=O)NC4CCC4)cc23)CC1 [CBK038275C],155.548
20,O=C(O)CCCC(=O)Nc1ccc([N+](=O)[O-])cc1O [CBK267384],143.043
21,Cc1ccccc1S(=O)(=O)N(c1ccc(C(C)(C)C)cc1)C1CCNCC1 [CBK165074T],126.848
22,COc1ccccc1C(=O)N1CCN(Cc2cc(OC)c(O)c(OC)c2)CC1 [CBK263484],121.624
23,Nc1nc(N)c2cccc(F)c2n1 [CBK025945],151.728
24,CC1(C)C(=O)N2CCN=C2c2ccccc21 [CBK009903],135.81
25,CC(SCCc1ccccn1)C(=O)O (stereo not shown) [CBK026572],76.3682
26,c1cnc(OC2CCN(CC3CCCCC3)CC2)c(OC2CCCCC2)n1 [CBK082879T],126.929
27,O=C(NCc1ccccc1)C(Cc1ccc([N+](=O)[O-])cc1)N1C(=O)c2ccccc2C1=O (stereo not shown) [CBK261279],87.3742

# Molecules listed so far that contain a nitro group on carbon, in the order listed:
row,SMILES,% of control remaining [%]
3,O=C(CCN1C(=O)c2ccc([N+](=O)[O-])cc2C1=O)Nc1ccccc1-c1ccccc1 [CBK265134],71.8646
3,N#C/C(=C/c1ccccc1OCc1cccc([N+](=O)[O-])c1)c1ccc(C(=O)O)cc1 [CBK268748],129.727
20,O=C(O)CCCC(=O)Nc1ccc([N+](=O)[O-])cc1O [CBK267384],143.043
27,O=C(NCc1ccccc1)C(Cc1ccc([N+](=O)[O-])cc1)N1C(=O)c2ccccc2C1=O (stereo not shown) [CBK261279],87.3742

# (next part)

row,SMILES,% of control remaining [%]
1,Cc1ccc(C(=O)C(NC(=O)c2cccs2)Nc2ccc(S(N)(=O)=O)cc2)cc1 (stereo not shown) [CBK264897],120.517
2,CCc1cccc2c(CC(=O)NCCn3ccc(C)n3)c(C)[nH]c12 [CBK282698],118.401
3,CSc1[nH]nc(N)c1-c1ccc([N+](=O)[O-])cc1 [CBK016751],113.546
4,O=C(Nc1ccc(S(=O)(=O)NCCc2ccccc2)cc1)c1ccncc1 [CBK268172],93.6626
5,CCN(CC)CCCCSc1ccc(O)cc1 [CBK261785C],100
6,CSCCCNC(=O)C1(c2ccccc2)CCCC1 [CBK149526],154.769
7,CC(C)(C)c1cc(C[C@H]2CNCC[C@H]2CC(=O)N2CCN(c3ccc(F)cc3)CC2)no1 [CBK288800],129.101
8,CCc1ccccc1NC(=O)Cn1ncnc1Sc1nc2c(c(=O)n(C)c(=O)n2C)n1C [CBK265963],134.2
9,Cc1ccc(S(=O)(=O)Nc2ccccc2C(=O)O)cc1[N+](=O)[O-] [CBK042374],111.18
10,CN(C)CCC1CCCCN1C(=O)C1C2CCCCC21 (stereo not shown) [CBK282055],169.788
11,COc1cccc(C2SCC(=O)Nc3[nH]nc(C)c32)c1 (stereo not shown) [CBK287981],116.59
12,Cc1nn(Cc2ccc(F)cc2)c(=O)c2cc3sccc3n12 [CBK284059],137.491
13,O=C(O)C(Cc1c[nH]c2ccccc12)NCC1CCCCC1 (stereo not shown) [CBK287238],121.415
14,COc1ccc(Nc2ncnc3oc(C)c(C)c23)cc1 [CBK288163],128.169
15,Nn1c(-c2cccs2)nc2ccccc2c1=O [CBK003650],130.734
16,CS(=O)(=O)N1CCC(Oc2nccnc2OCc2ccc(Cl)c(Cl)c2)CC1 [CBK144910],110.814
17,NC1=NC(c2ccc3c(c2)OCO3)n2c(nc3ccccc32)N1 (stereo not shown) [CBK269906],141.559
18,CN(C(=O)c1c[nH]nc1C1CCCN(Cc2cc3ccccc3o2)C1)C1CCCCC1 (stereo not shown) [CBK286492],127.09
19,Cc1ccc2cc(CN(CCN(C)C)C(=S)Nc3ccccc3)c(=O)[nH]c2c1 [CBK134909],129.682
20,CN(C)CCCN1CCCC2(CCN(C(=O)c3cc(F)c(F)cc3F)C2)C1 (stereo not shown) [CBK132005],100.279
21,CC(C(=O)NC1CCCN(CC(F)(F)F)C1)n1cnc2ccccc21 (stereo not shown) [CBK304185],90.9823
22,Oc1cccc(-c2nccnc2N[C@@H]2CCN(Cc3ccccc3)C2)c1 [CBK037017],204.03
23,CC(NC(=O)c1ccccc1Cn1cncn1)C1CC2CCC1C2 (stereo not shown) [CBK281654],137.945
24,COc1cc(Nc2cncc(-c3ccccc3CO)n2)cc(OC)c1OC [CBK037160],101.832
25,NCC1CCN(c2cc(C(F)(F)F)c3scc(C(=O)NCc4cccc(F)c4F)c3n2)CC1 [CBK036391T],35.2527
